Data reported in patent publication US10221217 (University of Washington, dated 2019).

Target: T1, CD4-IgG2 (UniProt P01730 26-204)
T1 construct: Captured on SPR chip; not shown: IgG2 portion
Test: SPR, CD4-IgG2 captured, construct as analyte

B1: c1d1_v2 (other)
chain: DTITLPCRPAPPPHCSSNITGLILTRDGGNSNNESEIFRPGGGDMAGMPRCGGGAVSTQLLLNGSLAEEEVVCRSVNFTDNAKSICVQLNTSVEINCTGAGHCNISRAKWNNTLKQIASCLREQFGNNKTIIFKQSSGGDPEIVTHSFNCGGEFFYCDSTQLFNSTWFGTKHHHHHH
binding result: no binding (tested: 1 µM)
